PubChem BioAssay AID1259424, University of Nebraska Medical Center, 2018
This is one part, drawn at random, of about 14,000 reagents. 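Higher correlation or smaller distance means closer resemblance to KSR1 loss; control wells, including KSR1 knockdowns, recur on many plates.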 Reagent sequences are not shown. The record does not give: the time to read-out.

Aim: 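Find knockdowns that reproduce the expression shifts seen after KSR1 loss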 (primary screen)
Cells: human HCT116 colon cancer cells
Reagent: siRNA pool against human genes, 50 nM
Measured: 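Six signature mRNAs by branched-DNA multiplex assay, scaled to two housekeeping genes and non-targeting median, log2; matched to mean KSR1 knockdown profile by Pearson correlation and euclidean distance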
Scale: mean correlation with KSR1 profile and KSR1 correlation: higher = expression change more like KSR1 knockdown; mean distance from KSR1 profile: higher = expression change less like KSR1 knockdown

gene,mean correlation with KSR1 profile,mean distance from KSR1 profile,"KSR1 correlation, replicate 1","KSR1 correlation, replicate 2","KSR1 correlation, replicate 3"
CHST2 (carbohydrate sulfotransferase 2),-0.213,1.38,0.173,-0.0195,-0.223
AMFR (autocrine motility factor receptor),-0.582,2.63,-0.508,-0.664,-0.427
KLHL2 (kelch like family member 2),-0.582,2.08,-0.279,-0.702,-0.616
GNRHR2 (gonadotropin releasing hormone receptor 2 (pseudogene)),0.777,2.31,0.189,0.939,0.547
LYL1 (LYL1 basic helix-loop-helix family member),-0.412,3.85,-0.289,-0.537,-0.474
SNRNP35 (small nuclear ribonucleoprotein U11/U12 subunit 35),0.096,2.06,0.19,0.0276,0.134
RPL14 (ribosomal protein L14),-0.0572,3.53,-0.0179,-0.0697,-0.16
RNF31 (ring finger protein 31),-0.551,0.959,-0.52,0.166,-0.16
EIF4G2 (eukaryotic translation initiation factor 4 gamma 2),0.735,3.16,0.72,0.69,0.853
UBE2J1 (ubiquitin conjugating enzyme E2 J1),0.204,2.89,0.277,0.146,0.0594
CTDNEP1 (CTD nuclear envelope phosphatase 1),-0.355,4.08,-0.167,-0.479,-0.285
STKLD1 (serine/threonine kinase like domain containing 1),0.487,2.81,0.831,0.443,0.143
VAMP4 (vesicle associated membrane protein 4),-0.228,2.66,-0.1,0.587,-0.559
SLC30A3,-0.571,2.06,-0.427,-0.497,-0.626
TEX28 (testis expressed 28),-0.687,2.19,-0.56,-0.629,-0.758
STMN1 (stathmin 1),0.26,2.53,0.056,0.107,0.365
PPP1R1A (protein phosphatase 1 regulatory inhibitor subunit 1A),0.575,1.23,0.266,0.583,0.562
MYO15A (myosin XVA),-0.529,1.9,-0.452,-0.585,-0.594
TECTA (tectorin alpha),-0.238,2.05,-0.222,-0.635,0.0384
AMY2B (amylase alpha 2B),-0.39,1.88,-0.289,-0.408,-0.386
GCLM (glutamate-cysteine ligase modifier subunit),-0.152,1.37,-0.134,-0.318,-0.342
ZNF12 (zinc finger protein 12),-0.0669,3.21,0.393,-0.445,0.0439
FBRS (fibrosin),-0.74,2.57,-0.719,-0.716,-0.772
PATJ (PATJ crumbs cell polarity complex component),-0.275,2.5,-0.205,-0.379,-0.25

Limited to “mean correlation with KSR1 profile” (4 entries from above):
MYO15A (myosin XVA): -0.529
TECTA (tectorin alpha): -0.238
AMY2B (amylase alpha 2B): -0.39
GCLM (glutamate-cysteine ligase modifier subunit): -0.152

Further records follow:
gene,mean correlation with KSR1 profile,mean distance from KSR1 profile,"KSR1 correlation, replicate 1","KSR1 correlation, replicate 2","KSR1 correlation, replicate 3"
CASP5 (caspase 5),-0.12,1.94,-0.172,-0.126,-0.0506
THSD7A (thrombospondin type 1 domain containing 7A),-0.597,2.68,-0.556,-0.742,-0.624
CD1E (CD1e molecule),-0.213,2.68,-0.13,-0.386,-0.272
SF3B3 (splicing factor 3b subunit 3),-0.31,3.66,-0.41,-0.0198,-0.496
NETO1 (neuropilin and tolloid like 1),-0.275,2.97,-0.538,-0.149,-0.301
OGN (osteoglycin),0.3,1.72,0.287,0.629,-0.0976
BTG2 (BTG anti-proliferation factor 2),-0.114,2.05,-0.111,0.275,-0.383
GABRB2 (gamma-aminobutyric acid type A receptor subunit beta2),-0.316,4.35,-0.672,-0.392,0.0343
MYL5 (myosin light chain 5),-0.646,3.55,-0.822,-0.646,-0.543
TYW2 (tRNA wybutosine-synthesizing protein 2),-0.836,1.49,-0.883,-0.892,-0.456
LBP (lipopolysaccharide binding protein),0.489,2.87,0.308,0.549,0.303
OR7C2 (olfactory receptor family 7 subfamily C member 2),0.458,2.04,0.525,0.647,-0.0437
RBM23 (RNA binding motif protein 23),-0.0635,3.36,-0.058,-0.178,-0.19
PEX3 (peroxisomal biogenesis factor 3),0.211,3.15,-0.0145,0.245,0.176
ADORA2A (adenosine A2a receptor),0.404,2.03,0.306,0.466,0.299
POLR3G (RNA polymerase III subunit G),-0.348,2.93,-0.234,-0.399,-0.395
TCF19 (transcription factor 19),0.825,1.53,0.842,0.873,0.728
ACOT9 (acyl-CoA thioesterase 9),0.0816,1.95,0.35,0.0599,-0.058
SYP (synaptophysin),0.794,1.45,0.962,0.389,0.779
PRIM1 (DNA primase subunit 1),0.0931,1.96,-0.018,0.252,0.0777
APOB (apolipoprotein B),0.0125,2.58,-0.103,-0.113,0.0758
KCNQ2 (potassium voltage-gated channel subfamily Q member 2),0.189,2.5,0.394,0.104,0.294
SIRT1 (sirtuin 1),0.307,1.25,0.164,0.116,0.584
KLHDC8A (kelch domain containing 8A),-0.885,3.38,-0.807,-0.673,-0.811
APLNR (apelin receptor),0.831,1.83,0.783,0.811,0.898
DERL2 (derlin 2),-0.374,3.61,-0.158,-0.203,-0.532
